Experimental data published in paper PMC4783296, “Structural basis underlying CAC RNA recognition by the RRM domain of dimeric RNA-binding protein RBPMS”.
Results are given in words; binding and its absence hold for the method and conditions named. Some entries that bind do so weakly or less than the wild type.

Protein sequences, listed by entry. Tags and fused reporters are not part of them. Lines headed by an entry give the natural chain unless they say otherwise; changes in a name come on top. Residues count along the entry.
RBPMS RRM (amino acids 11-114) (Q93062, residues 11-114): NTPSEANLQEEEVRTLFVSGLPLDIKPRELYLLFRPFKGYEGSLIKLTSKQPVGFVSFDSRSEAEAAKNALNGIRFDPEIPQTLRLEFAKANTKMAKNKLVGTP

Key:
[1] = molecular target: RBPMS RRM (amino acids 11-114) (human) (UniProt Q93062); assay: SEC; gel filtration on Superdex 75, elution volumes read on the column calibration curve; buffer not stated; both purified
[2] = molecular target: full-length RBPMS isoform A (ENSP00000318102) (human) (UniProt Q93062); assay: as above

Question: For “RBPMS RRM (amino acids 11-114) (from UniProt Q93062 11-114) (domain or fragment)”, which binding [1] is on record?
Answer: Its binding is “binds”.

Question: Which binding [2] does the source give for “full-length RBPMS isoform A (ENSP00000318102) (from UniProt Q93062-1 1-196)” here?
Answer: The binding was “binds”.
